From the supplement of paper PMC11006884
This is a selection; strong and weak results do not stand in their true shares.

Protein sequences, listed by entry. Tags and fused reporters are not part of them. Lines headed by an entry give the natural chain unless they say otherwise; changes in a name come on top.
UniProt Q8IV48: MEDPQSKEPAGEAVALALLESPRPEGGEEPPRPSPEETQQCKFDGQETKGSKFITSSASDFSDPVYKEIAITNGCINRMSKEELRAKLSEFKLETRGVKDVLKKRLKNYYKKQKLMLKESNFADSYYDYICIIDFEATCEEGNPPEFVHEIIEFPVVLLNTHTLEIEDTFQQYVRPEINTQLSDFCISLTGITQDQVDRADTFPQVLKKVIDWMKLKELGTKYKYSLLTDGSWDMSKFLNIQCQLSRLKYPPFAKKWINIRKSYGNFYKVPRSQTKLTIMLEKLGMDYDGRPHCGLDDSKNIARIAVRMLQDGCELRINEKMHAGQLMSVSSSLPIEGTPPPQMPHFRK
UniProt Q86VP6: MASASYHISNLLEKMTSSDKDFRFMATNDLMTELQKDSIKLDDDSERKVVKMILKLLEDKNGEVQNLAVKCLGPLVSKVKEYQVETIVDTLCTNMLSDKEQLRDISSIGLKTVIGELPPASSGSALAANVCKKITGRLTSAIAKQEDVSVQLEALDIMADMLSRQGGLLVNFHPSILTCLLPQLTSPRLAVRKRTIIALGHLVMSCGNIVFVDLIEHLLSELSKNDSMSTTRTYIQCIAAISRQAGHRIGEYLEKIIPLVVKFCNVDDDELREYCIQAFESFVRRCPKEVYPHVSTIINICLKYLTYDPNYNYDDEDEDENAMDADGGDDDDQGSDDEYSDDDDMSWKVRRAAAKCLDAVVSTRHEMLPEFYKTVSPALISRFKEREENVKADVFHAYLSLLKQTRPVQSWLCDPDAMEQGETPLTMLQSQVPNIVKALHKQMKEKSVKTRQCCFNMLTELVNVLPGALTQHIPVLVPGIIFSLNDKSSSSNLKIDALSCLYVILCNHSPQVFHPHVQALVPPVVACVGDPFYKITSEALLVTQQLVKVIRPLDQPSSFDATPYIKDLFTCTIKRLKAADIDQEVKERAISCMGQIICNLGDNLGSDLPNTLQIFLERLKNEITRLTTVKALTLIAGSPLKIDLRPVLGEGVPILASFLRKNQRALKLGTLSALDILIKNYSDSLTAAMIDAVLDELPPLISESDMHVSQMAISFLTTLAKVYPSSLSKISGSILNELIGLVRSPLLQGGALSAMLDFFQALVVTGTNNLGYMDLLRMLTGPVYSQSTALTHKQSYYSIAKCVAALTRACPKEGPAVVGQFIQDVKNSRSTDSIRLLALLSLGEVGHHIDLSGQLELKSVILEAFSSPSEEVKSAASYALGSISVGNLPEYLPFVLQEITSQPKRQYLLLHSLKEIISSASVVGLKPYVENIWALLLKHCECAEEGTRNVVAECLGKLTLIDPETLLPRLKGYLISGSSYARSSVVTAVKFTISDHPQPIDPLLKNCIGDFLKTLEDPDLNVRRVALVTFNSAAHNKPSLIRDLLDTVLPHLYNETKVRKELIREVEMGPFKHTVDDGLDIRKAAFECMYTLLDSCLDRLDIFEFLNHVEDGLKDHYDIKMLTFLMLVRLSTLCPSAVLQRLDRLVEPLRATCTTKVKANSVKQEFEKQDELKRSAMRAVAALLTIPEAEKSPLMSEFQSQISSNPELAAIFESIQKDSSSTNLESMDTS
UniProt Q8IX12: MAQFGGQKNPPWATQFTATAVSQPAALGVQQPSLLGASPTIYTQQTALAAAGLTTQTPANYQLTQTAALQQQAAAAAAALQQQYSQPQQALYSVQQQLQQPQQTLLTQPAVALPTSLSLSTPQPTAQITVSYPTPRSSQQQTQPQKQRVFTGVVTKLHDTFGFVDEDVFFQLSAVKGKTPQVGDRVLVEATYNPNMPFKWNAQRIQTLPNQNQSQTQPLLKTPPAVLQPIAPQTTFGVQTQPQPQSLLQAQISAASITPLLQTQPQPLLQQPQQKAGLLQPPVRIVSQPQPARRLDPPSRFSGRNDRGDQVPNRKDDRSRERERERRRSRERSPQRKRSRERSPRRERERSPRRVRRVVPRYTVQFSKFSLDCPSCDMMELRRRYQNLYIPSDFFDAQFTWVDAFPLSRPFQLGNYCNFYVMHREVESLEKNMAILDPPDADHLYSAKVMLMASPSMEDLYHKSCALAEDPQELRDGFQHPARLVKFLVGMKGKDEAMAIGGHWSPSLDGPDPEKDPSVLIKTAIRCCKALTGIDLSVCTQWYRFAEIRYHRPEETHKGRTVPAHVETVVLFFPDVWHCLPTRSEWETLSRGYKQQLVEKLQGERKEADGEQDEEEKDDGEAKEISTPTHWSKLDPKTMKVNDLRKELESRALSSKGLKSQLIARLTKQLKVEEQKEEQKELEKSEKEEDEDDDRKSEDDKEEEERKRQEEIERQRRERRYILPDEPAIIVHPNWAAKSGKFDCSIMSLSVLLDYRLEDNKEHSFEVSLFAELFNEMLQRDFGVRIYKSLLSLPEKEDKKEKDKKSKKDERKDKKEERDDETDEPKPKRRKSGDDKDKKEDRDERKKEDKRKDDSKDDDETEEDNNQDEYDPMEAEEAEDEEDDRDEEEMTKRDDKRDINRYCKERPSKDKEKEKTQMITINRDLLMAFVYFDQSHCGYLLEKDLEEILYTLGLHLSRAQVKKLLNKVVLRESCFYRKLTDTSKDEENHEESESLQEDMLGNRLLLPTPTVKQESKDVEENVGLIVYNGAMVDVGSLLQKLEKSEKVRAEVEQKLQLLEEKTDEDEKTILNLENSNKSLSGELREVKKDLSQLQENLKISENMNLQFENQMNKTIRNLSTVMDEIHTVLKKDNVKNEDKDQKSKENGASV
UniProt Q7Z2W4: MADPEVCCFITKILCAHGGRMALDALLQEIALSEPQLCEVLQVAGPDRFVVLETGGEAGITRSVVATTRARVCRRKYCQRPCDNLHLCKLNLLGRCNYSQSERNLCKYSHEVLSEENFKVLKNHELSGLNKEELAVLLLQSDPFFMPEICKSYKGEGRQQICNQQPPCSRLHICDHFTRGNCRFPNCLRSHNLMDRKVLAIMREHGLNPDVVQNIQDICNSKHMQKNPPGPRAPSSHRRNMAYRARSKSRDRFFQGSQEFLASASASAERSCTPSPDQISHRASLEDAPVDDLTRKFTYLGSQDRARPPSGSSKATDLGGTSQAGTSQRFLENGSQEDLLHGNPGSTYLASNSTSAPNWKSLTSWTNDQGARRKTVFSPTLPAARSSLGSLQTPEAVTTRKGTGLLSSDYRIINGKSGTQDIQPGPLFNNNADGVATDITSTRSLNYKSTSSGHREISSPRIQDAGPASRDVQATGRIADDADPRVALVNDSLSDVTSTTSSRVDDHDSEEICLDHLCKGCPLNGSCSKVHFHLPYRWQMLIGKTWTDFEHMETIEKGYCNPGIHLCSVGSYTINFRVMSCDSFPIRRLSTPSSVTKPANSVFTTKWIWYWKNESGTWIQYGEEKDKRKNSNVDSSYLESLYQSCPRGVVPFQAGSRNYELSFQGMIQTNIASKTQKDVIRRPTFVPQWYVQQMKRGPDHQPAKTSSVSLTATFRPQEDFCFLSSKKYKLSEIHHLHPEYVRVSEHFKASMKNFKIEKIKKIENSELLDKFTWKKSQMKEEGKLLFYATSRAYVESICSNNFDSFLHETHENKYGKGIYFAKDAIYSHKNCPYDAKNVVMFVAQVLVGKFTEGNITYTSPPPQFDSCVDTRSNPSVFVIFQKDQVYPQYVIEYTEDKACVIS
UniProt Q8IX01: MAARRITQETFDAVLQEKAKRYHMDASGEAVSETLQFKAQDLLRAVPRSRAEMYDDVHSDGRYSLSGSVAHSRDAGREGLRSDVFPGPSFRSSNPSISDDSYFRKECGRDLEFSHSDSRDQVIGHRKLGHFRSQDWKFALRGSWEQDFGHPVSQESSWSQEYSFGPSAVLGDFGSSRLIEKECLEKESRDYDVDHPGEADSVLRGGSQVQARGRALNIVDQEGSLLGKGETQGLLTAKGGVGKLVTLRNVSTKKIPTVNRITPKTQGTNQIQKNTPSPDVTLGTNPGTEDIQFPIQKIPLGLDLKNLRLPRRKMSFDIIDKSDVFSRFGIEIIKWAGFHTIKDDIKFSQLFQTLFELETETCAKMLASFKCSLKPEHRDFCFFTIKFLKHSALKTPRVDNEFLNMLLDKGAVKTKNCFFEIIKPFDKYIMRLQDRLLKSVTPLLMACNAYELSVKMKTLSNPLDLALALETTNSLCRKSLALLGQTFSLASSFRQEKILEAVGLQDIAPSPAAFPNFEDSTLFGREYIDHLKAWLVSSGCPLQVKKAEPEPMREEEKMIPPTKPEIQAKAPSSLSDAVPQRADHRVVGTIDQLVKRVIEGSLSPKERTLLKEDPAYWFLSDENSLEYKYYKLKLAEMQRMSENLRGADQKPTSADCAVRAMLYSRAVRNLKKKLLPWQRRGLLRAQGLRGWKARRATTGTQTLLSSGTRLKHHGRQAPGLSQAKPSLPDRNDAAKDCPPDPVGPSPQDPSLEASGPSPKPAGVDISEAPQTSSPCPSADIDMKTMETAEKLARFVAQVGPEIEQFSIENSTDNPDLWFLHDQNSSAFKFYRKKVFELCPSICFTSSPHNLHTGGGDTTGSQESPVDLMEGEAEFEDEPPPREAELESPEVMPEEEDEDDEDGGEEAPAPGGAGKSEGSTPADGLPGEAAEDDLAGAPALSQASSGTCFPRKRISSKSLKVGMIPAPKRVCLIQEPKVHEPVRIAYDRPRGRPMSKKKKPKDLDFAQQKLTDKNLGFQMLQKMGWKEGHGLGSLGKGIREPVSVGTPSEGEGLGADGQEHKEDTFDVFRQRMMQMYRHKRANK
UniProt Q7Z417: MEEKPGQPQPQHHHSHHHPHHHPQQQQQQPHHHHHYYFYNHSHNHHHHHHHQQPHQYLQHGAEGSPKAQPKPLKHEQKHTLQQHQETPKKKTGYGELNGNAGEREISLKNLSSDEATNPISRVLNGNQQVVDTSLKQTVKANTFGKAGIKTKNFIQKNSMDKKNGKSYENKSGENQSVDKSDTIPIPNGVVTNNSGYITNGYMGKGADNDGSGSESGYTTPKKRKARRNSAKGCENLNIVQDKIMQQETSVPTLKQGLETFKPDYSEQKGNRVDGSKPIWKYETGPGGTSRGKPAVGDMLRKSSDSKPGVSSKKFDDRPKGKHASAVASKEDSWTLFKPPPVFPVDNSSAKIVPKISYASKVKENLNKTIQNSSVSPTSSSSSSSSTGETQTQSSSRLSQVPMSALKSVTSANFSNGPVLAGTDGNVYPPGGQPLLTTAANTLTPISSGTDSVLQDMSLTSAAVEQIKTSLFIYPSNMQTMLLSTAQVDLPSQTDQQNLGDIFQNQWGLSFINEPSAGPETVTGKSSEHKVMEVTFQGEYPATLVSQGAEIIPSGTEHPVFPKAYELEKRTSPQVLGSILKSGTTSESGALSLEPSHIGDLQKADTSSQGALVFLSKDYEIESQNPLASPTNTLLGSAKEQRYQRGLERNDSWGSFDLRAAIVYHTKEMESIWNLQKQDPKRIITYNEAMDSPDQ
UniProt Q8IVM0: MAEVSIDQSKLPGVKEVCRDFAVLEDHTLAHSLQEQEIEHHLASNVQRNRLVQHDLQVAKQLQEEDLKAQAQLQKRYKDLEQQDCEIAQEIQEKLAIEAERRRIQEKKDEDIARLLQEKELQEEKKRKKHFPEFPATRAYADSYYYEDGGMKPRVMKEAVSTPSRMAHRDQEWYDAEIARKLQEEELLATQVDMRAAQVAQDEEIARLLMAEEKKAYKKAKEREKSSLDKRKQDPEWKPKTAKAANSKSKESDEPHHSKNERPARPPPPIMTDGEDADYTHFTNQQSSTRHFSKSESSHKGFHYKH
UniProt Q8IW35: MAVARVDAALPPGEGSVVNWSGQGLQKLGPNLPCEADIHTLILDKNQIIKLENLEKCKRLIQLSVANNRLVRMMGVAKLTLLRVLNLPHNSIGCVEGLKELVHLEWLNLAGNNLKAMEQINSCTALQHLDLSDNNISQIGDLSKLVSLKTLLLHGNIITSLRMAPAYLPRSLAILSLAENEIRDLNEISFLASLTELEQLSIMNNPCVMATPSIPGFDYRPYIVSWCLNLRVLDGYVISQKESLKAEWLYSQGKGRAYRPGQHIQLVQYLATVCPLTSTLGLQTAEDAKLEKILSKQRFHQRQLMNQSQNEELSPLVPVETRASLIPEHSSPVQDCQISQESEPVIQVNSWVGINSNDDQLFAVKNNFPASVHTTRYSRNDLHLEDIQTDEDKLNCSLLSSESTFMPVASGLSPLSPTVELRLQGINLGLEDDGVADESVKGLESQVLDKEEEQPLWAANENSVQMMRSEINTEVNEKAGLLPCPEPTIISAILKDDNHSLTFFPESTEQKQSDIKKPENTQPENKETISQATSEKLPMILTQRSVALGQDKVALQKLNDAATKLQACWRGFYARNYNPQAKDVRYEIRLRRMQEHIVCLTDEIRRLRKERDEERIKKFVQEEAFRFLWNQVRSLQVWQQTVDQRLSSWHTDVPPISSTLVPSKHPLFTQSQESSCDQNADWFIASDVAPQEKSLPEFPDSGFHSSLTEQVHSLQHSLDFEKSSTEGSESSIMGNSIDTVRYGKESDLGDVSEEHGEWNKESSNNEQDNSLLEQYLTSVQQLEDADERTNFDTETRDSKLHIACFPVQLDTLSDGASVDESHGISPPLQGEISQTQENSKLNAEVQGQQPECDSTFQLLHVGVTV

Each target was assayed with COC(=O)C#Cc1ccccc1 [methyl 3-phenylpropiolate] (assay: log2 ratio of iodoacetamide-alkyne labeling of the cysteine site, DMSO over compound (competition); higher = stronger covalent engagement of the cysteine by the compound, active = 1 or more). Details: 500 µM; treatment time 1 h; system: HEK293T cell lysate.
Procedure, shortened: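 After 1 h at ambient temperature with vehicle or electrophile (500 µM), HEK293T lysate (2 mg/mL) was labelled for 1 h with iodoacetamide alkyne and clicked to sCIP-TMT reagents. Pooled samples were trypsin-digested overnight at 37 °C, streptavidin-enriched, acid-eluted and analysed by Orbitrap Eclipse LC-MS/MS with FAIMS, then quantified in FragPipe over three replicates with duplicate channels. A cysteine's log2 competition ratio is its mean control-channel over mean compound-channel reporter intensity. Cysteines quantified in only one replicate were not included.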

log2 ratio of iodoacetamide-alkyne labeling, inactive:
ERI1 C75 (UniProt Q8IV48) 0.356
CAND1 C131 (UniProt Q86VP6) 0.338
CCDC25 C83 (UniProt Q86WR0) 0.0967
WDFY1 C287 (UniProt Q8IWB7) 0.127
SND1 C31 (UniProt Q7KZF4) 0.0343
UniProt Q7Z695_C54 0.541
UniProt Q7Z2Z2_C670 0.0864
KANSL1 C1020 (UniProt Q7Z3B3) 0.445
UniProt Q7L1Q6_C35 -0.0927
IRF2BP2 C37 (UniProt Q7Z5L9) -0.0083
CYFIP1 C179 (UniProt Q7L576) 0.212
SLFN11 C760 (UniProt Q7Z7L1) 0.419
SRRM1 C33 (UniProt Q8IYB3) 0.135
PBRM1 C450 (UniProt Q86U86) 0.0283
FTSJ3 C52 (UniProt Q8IY81) 0.086
EXOC8 C172 (UniProt Q8IYI6) 0.0248
DHX40 C42 (UniProt Q8IX18) 0.355
GPRIN1 C221 (UniProt Q7Z2K8) 0.238
UniProt Q7L0Y3_C123 -0.0842
CCAR1 C465 (UniProt Q8IX12) 0.502
IRF2BP1 C36 (UniProt Q8IU81) 0.0787
UniProt Q7LBC6_C509 0.346
UniProt Q86YR5_C616 -0.225
ZC3HAV1 C38 (UniProt Q7Z2W4) 0.429
UniProt Q8IX01_C183 0.451
UniProt Q7Z2T5_C730 0.538
NT5DC3 C276 (UniProt Q86UY8) 0.218
FTSJ3 C577 (UniProt Q8IY81) 0.308
UniProt Q86Y56_C349 0.458
ZC3HC1 C5 (UniProt Q86WB0) 0.311
VPS13B C2907 (UniProt Q7Z7G8) 0.889
METTL3 C500 (UniProt Q86U44) 0.475
NUFIP2 C234 (UniProt Q7Z417) 0.151
CCDC50 C85 (UniProt Q8IVM0) 0.455
UniProt Q7Z5K2_C344 0.847
VRK3 C191 (UniProt Q8IV63) 0.575
CEP97 C396 (UniProt Q8IW35) 0.126

A stretch taken from the entries so far:
log2 ratio of iodoacetamide-alkyne labeling, inactive:
IRF2BP2 C37 (UniProt Q7Z5L9) -0.0083
CYFIP1 C179 (UniProt Q7L576) 0.212
